Experimental data reported in PubChem BioAssay AID266 (DTP/NCI, 2004).
The list shows only some results of the screen, not a fair sample: it is rich in T/C values a quarter to a half above the control, in often repeated tests (any T/C) and in doses without a T/C. Further doses and runs are listed elsewhere. T/C is the treated group as % of the vehicle group. Schedule codes are those of the source, read here as Q, the interval in days (D) or hours (H), X, the number of doses. Some doses have a count of surviving animals in place of a T/C: the source files T/C as zero there, which appears to mark a toxic dose or a test without result, not a measured value. Counts of survivors are from the toxicity check (mostly the fifth day) where no day follows; animals may have died later.

Tested on: Nude mice, LX-1 lung xenograft intrarenal, tumor weight T/C
Assay: NCI In Vivo Anticancer Drug Screen. Data for tumor model Human Lung LX-1 Xenograft (intrarenal inoculation) in NU/NU BALB/C (nude) mice
Conditions: T/C endpoint: mean tumor weight change, higher T/C = larger tumour; for T/C: evaluated on day 11
Protocol: The antitumor activity of compounds was measured in mice bearing transplantable tumors. Survival or tumor size were measured and the results are expressed as the measurement made in the treated group (T) divided by the measurement made in the vehicle treated control group (C). The tumor model used in this assay is Human Lung LX-1 Xenograft (intrarenal inoculation) in NU/NU BALB/C (nude) mice

[1] = dose: 150.0 mg/kg/injection, schedule: Q04DX003 (sc), vehicle: saline
[2] = dose: 300.0 mg/kg/injection, schedule: Q04DX003 (sc), vehicle: saline

CCCCCCCCCCCCCCCCCCOCC(COP(=O)([O-])OCC[N+](C)(C)C)OC (stereo not drawn)
survivor count (dose: 75.0 mg/kg/injection, schedule: Q04DX003 (sc), vehicle: saline): 1 of 6 on day 11 | survivor count [1]: 0 of 6 on day 11 | survivor count [2]: 0 of 6 on day 11

CCOC(=O)N(C)N=NC
survivor count (dose: 120.0 mg/kg/injection, schedule: Q04DX003 (ip), vehicle: saline): 2 of 6 on day 11 | survivor count (dose: 240.0 mg/kg/injection, schedule: Q04DX003 (ip), vehicle: saline): 0 of 6 on day 11

CCC1CCCCN1C(=S)N/N=C(\C)c1ccccn1 (stereo not drawn)
survivor count (dose: 150.0 mg/kg/injection, schedule: Q04DX003 (sc), vehicle: saline with Tween-80): 0 of 6 on day 11

Cc1ccc(S(=O)(=O)N/N=C/C(Br)=C(/Br)C(=O)O)cc1
T/C (dose: 2.5 mg/kg/injection, schedule: Q04DX003 (sc), vehicle: saline): 129 % of control

CCNC(C)(C)C(SSS)c1ccco1 (stereo not drawn)
survivor count (dose: 1200.0 mg/kg/injection, schedule: Q04DX003 (sc), vehicle: Klucel (hydroxypropylcellulose) (HPC)): 0 of 6 on day 11

OCC(O)C(O)C(O)C(O)CO (stereo not drawn)
T/C (dose: 150.0 mg/kg/injection, schedule: Q04DX003 (ip), vehicle: saline): 139 % of control | T/C (dose: 300.0 mg/kg/injection, schedule: Q04DX003 (ip), vehicle: saline): 134 % of control

CNc1nc(N(C)C)nc(N(C)C)n1
survivor count (dose: 120.0 mg/kg/injection, schedule: Q01DX010 (sc), vehicle: other): 0 of 3 on day 11

CCC1OC(OC)C=CC1=O (stereo not drawn)
survivor count [1]: 0 of 6 on day 11 | survivor count [2]: 0 of 6 on day 11
